37 variants from the RNAGym collection of RNA variant scans (doi:10.1126/science.aae0568) can be followed below.

Variants at the floor of the assay are shown more often than the library holds them.

The labels stand for the following.
B1: tRNA (parent)
chain: GUUCCGUUGGCGUAAUGGUAACGCGUCUCCCUCCUAAGGAGAAGACUGCGGGUUCGAGUCCCGUACGGAACG

In the data set the parent is B1. The experiment in a line: yeast fitness relative to wild type (ratio to wild type); higher = fitter; tRNA-Arg(CCU), competitive growth, 37 C, YPD. An outline of the steps:
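Variants of the tRNA-Arg(CCU) gene were chemically synthesised with a 3% per-site mutation rate across 69 sites and placed at the native genomic locus in Saccharomyces cerevisiae. Six parallel replicates of the pooled strains were competed in YPD at 37°C for 24 hours, and gene amplicons from the start and end populations were read by 100-nucleotide paired-end sequencing. Darwinian fitness relative to wild type was derived from changes in genotype frequencies. Genotypes required ≥ 100 starting reads, and estimates < 0.5 were set to 0.5.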
Regarding GUUCCGUUGGCGUAAUGGUAACGCGUCUCCAUCCUUAGGCGAAGACUGCGGGUUCGAGUCCCGUACGGAACG [C31A A36U A40C], the yeast fitness was no more than 0.5.

On to GUUUCGUUGGCGUAAUGGUAACGGGUCUCGUUCCAUAGGAGAAAACUGCGGGUUCGAGUCCCCUACGGAACG [C4U C24G C30G C31U U35A A36U G44A G63C], for which the yeast fitness amounted to 0.654.

Consider GCUCCGUUGGCGUAAUGGUAACGCGUCUCCCUCCUCAGGAGAAGACUGCGGGUUCGAGUCCCGUAGGGAACG [U2C A36C C66G], for which the yeast fitness is no more than 0.5.

For the variant GUUCCCUUGGCGUACUGGUAACGCGUCUCCCUCCUAAGGAGAAGACUGCGGGUUCGAGUCCCCUACGGAACG [G6C A15C G63C], the yeast fitness is no more than 0.5.

In the case of GUUGCAUUGGUGUAAUGGUAACGCGUCUACCUCCUAAGGAGAAGACUGCGGGUUCGAGUCCCAUACGGAACG [C4G G6A C11U C29A G63A], the yeast fitness was no more than 0.5.

Regarding GUUCCGGUGGCGUAAUGGUAACGCGUCUCCCUGCUAAGGAGAAGACUGCGGGUUCGAGUCCAGUACGCAACG [U7G C33G C62A G68C], the yeast fitness is no more than 0.5.

For the variant GUUCCGUUGGGGUAAUGGUAACGCGUCUCCCUCCUAAGGAGAAGACUGCGGGUUCGAAUCCCGUACGGAACG [C11G G58A], the yeast fitness came out at 0.722.

In the case of GUUCCGUUGGCGUAGUGAUAACGCGUCUCCCUCCUAACGAGAAGACUGCGGGUUCGAGUCCCGUACGUAACG [A15G G18A G38C G68U], the yeast fitness is no more than 0.5.

For the variant GGUCCGUUGGCGUAAUGGUAUCGCGUCUCCCUCCUAAGGAGAAGACUGCGGGUUCGAGUCCCGUACCGAUCG [U2G A21U G67C A70U], the yeast fitness is no more than 0.5.

Consider GUUCCGUUGGCGUAAUGGUAACGUGUAUCCCUCCUAAGGAGAAGACUGCUGGUUCGAGUCCCGUACGGAACG [C24U C27A G50U], for which the yeast fitness is no more than 0.5.

In the case of GUUCCAUUGGCGUAAUGGUGACGCGUCUCCCUCCUAAGGAGAAGACUGCGGGUUCGAGUCACGUACGGAACG [G6A A20G C61A], the yeast fitness was no more than 0.5.

As to GUUCCGUUGGCGUGAUGGUAACGCGUCUCCCUCCUAAGGAGAAGACUCCGGGUUCGAGUCCCGUACCGAACG [A14G G48C G67C], the yeast fitness was no more than 0.5.

For GUUCCGUUGGCGUAAUGGUAACGCGUCUCCCUCCUAAGGAGGAGACUGCGGGUUCGAGACCCGUACGGAACG [A42G U59A], the yeast fitness was determined as 0.939.

On to GUUAUGUUGGCGUAAUAGUAACGCGUCUCCCUCCUAAGGAGAAGACUGCGGGUUCGAGUCCCGUACGGAGCG [C4A C5U G17A A70G], for which the yeast fitness was no more than 0.5.

Turning to GUUCCGUUGGCGUAAUCGUAACGCGUCUGCCUCCUACGGAGAAGACUGCGGGUUCGAGUCCCGCACGGAACG [G17C C29G A37C U64C], the yeast fitness was found to be 0.771.

Regarding GUUCCAGUGGCGUAAUGGUAACGCGUUUCCCUUCUAAGGAGAAGACUGCGGGUUCGAGUCCCGUACGGAACG [G6A U7G C27U C33U], the yeast fitness is no more than 0.5.

In the case of GUUCAGUUGGCGUAAUGGUAACGCGUCUACCCCCUAAGGAGCAGGCUGCGGGUUCGAGUCCCGUACGGAACG [C5A C29A U32C A42C A45G], the yeast fitness is no more than 0.5.

In the case of GUUCCGUUGGCGUAAUGGUUACGCGUCUCCCUACUAAGGACAAAACUGCCGGUUCGAGUCCCGUACGAAACG [A20U C33A G41C G44A G50C G68A], the yeast fitness is no more than 0.5.

With GUUCCGUUGGCGUAACGGUAACGCGUCUCCCUCCUAAGGAGGAGACUGCGGGUUCGAGUCCCGUACGGAACG [U16C A42G], the yeast fitness came to 0.904.

As to GAUCCGUUGGCGUAAUGGUAACGCGUCUCCCUCGUAAGGAGAAGACUGCGGGUUCGAGUCCCAUACGGAACG [U2A C34G G63A], the yeast fitness was no more than 0.5.

On to GUCCCGUUGGCGUAAUGGUAACGCGUCUCCCUCCUAAGGGGAAGAAUGCGGGUUCGAGUCCCGUACGGCACG [U3C A40G C46A A69C], for which the yeast fitness came out at 0.706.

Take GUUCCGUUGGCGGAAUGGUAACGCGUCUCGCUCCUAAGGGGAAGACUGCCCGUUCGAGUCCCGUACGGAACG [U13G C30G A40G G50C G51C]: the yeast fitness was no more than 0.5.

Turning to GUUCCGUUGGCGUAAUGGUAACGCGUCUCCCUCCUAAGGAGUAGACUGCCGGUUCGAGUCCAGUACGGAACG [A42U G50C C62A], the yeast fitness was no more than 0.5.

In the case of GUUGCGUUGGGGUAAUGGUAUCGCGUCUCCCUCCUUAGGAGAAGACUGCGGGUUCGACUCCCGUACGGACCG [C4G C11G A21U A36U G58C A70C], the yeast fitness was no more than 0.5.

In the case of GUUCCGUUGGCGUAAUGGUAACGCGUCUCACGCCUAAGGAGAAGACUGUGGGUUGGAGUCCCGUACGGAACG [C30A U32G C49U C55G], the yeast fitness was no more than 0.5.

Consider GUUCCGUUGGCGUAAUGGUAACGCGUCUCACUCUUAAGGAGAAGACUGCGGGUUCGAGUCCCCUACGGAACG [C30A C34U G63C], for which the yeast fitness came out at 0.698.

Regarding GUUCCGUUGCCGUAAUGGUACCGCGUCUCCCUCCUAAGGAGAAGACUGCGGGUUCGAGUCCCGUAGGGAACG [G10C A21C C66G], the yeast fitness is no more than 0.5.

On to GUUGCGUUGGCGUAAUGGUAACGCGUCUUGCUCCUAAGCAGAAGACUGCGGGUUCGAGUACCGUACGGAACG [C4G C29U C30G G39C C60A], for which the yeast fitness was no more than 0.5.

With GUUCGGUUGGCGUUAUGGUAACGCGUCUCCCUCCUAAGGAGAAGACUGCGGGUUCGAGUCCCGUAAGGAACG [C5G A14U C66A], the yeast fitness was no more than 0.5.

Take GUUGCGUUGGAGUAAUGGUAACGCGUCUCCCGCCUAAGGAGAAGACUGCGGGUUCGAGUCCCGUACGGAACG [C4G C11A U32G]: the yeast fitness was no more than 0.5.

In the case of GUUCCGAUGGCGUUAUGGUAAUGCGUAUCCCUUCUAAGGAGAAGACUGCGGGUUCGAGUCACGUACGGAACG [U7A A14U C22U C27A C33U C61A], the yeast fitness is no more than 0.5.

GUUGCGUUGGCGUAAUGGUAACGCGUCUCCAUCCUAGGGAGAAGACUGCGGGUUUGGGUCCCGUACGGAACG [C4G C31A A37G C55U A57G]: the yeast fitness was no more than 0.5.

Regarding GUUCCGUUGCCAUAAUGGUAACGCGUCUCCCUCCUAAGGAGAAGACUGCGGGUUCGAGUCGCGUAUGGAACG [G10C G12A C61G C66U], the yeast fitness was no more than 0.5.

Turning to GUUCCGUUGGCGUAAGGGUAACACGUCUCCCUCCUAAGGUGAAGACUGCGGGUUCGAGUCCCGCACGGAACG [U16G G23A A40U U64C], the yeast fitness is no more than 0.5.

Turning to GUUCCGAUGGCGUAAUGGUAACGCGUCUCCCUCCUAAGGAGAAGACUGCGGAUUCGAGUCCCGUACGGAACG [U7A G52A], the yeast fitness was found to be 0.582.

As to GUUCCGUUGGCGUAAUCGUAACGCGUCUCCCUCCCAAGGAGAAGACUGCGGGUUCGAGUUCCGUACGGAACG [G17C U35C C60U], the yeast fitness was no more than 0.5.

For the variant GUUCCGUUGGCGUAAUAGCAACGCGUCUCCCUCAUAAGGGGAAGACUGCGGGUUCGAGUCCCGUACGGAACG [G17A U19C C34A A40G], the yeast fitness is no more than 0.5.
